Results are given in words; binding and its absence hold for the method and conditions named. In cells and extracts the contact can be indirect. For part of these data: Binding can be weak; no strength is given. For part of these data: Sequences can lack the tags named with a protein.
How the values were obtained:
[1] = biological target: T1, GST-Kap123 (S. cerevisiae) (UniProt P40069); assay: pull-down; GST-importins immobilised on Glutathione Sepharose, incubated with purified 3.4 µM Tsr2 or 4 µM Tsr2:eS26 in PBSKMT with competing E. coli lysates for 1 hr at 4°C; Coomassie Blue staining or Western; both purified
T1 sequence: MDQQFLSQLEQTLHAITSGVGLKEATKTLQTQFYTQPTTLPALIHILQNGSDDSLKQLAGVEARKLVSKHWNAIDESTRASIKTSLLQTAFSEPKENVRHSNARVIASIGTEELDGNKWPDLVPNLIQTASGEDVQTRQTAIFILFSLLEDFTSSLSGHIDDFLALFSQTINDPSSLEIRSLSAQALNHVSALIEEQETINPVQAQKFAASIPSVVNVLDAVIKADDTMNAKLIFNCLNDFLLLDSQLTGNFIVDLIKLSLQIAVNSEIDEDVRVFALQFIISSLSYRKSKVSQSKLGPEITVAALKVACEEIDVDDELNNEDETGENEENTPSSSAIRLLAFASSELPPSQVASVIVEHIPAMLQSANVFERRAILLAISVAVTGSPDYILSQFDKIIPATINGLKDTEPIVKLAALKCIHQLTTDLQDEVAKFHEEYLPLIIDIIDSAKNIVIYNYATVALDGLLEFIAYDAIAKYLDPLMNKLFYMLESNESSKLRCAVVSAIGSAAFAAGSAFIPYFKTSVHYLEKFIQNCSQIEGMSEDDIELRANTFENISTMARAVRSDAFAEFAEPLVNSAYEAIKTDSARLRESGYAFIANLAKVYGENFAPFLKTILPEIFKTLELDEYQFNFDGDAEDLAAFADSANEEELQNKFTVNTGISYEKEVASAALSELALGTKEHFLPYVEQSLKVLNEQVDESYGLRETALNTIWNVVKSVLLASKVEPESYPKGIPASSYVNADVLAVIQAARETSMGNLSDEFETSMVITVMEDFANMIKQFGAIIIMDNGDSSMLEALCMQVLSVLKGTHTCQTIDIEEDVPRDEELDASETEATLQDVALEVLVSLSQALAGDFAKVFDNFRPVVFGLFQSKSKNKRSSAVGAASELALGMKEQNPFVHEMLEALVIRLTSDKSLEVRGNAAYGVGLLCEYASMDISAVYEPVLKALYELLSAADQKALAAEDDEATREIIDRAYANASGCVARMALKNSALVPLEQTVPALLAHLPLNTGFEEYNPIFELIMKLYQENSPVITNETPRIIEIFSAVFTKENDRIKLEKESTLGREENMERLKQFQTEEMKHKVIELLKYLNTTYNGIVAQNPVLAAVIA

By UniProt entry, the sequences of proteins in these tests, tags left out. Where a name states a change or a piece, a line headed by the entry shows the natural chain unless it says otherwise.
UniProt Q06142: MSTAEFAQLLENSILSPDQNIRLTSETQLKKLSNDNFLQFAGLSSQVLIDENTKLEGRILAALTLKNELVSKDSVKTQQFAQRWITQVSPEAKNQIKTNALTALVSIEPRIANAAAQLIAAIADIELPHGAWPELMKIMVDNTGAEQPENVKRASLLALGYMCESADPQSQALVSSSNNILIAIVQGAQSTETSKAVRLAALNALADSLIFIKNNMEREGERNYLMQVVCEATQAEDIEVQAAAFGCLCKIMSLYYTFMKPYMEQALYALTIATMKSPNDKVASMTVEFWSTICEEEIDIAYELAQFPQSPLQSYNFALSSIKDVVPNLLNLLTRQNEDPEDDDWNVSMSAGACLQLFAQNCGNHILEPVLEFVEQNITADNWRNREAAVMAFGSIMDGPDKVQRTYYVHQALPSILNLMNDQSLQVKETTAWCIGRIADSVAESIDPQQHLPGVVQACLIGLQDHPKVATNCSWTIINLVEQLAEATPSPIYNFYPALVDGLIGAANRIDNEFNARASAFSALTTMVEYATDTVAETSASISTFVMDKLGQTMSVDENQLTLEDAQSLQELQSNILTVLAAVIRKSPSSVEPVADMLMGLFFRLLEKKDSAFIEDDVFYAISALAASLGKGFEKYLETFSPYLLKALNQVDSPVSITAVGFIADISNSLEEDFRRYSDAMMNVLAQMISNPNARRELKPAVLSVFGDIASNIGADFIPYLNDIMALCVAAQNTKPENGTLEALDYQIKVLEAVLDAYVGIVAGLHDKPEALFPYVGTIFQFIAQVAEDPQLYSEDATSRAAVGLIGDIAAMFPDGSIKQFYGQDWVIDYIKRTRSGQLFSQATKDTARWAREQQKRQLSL
UniProt P39938: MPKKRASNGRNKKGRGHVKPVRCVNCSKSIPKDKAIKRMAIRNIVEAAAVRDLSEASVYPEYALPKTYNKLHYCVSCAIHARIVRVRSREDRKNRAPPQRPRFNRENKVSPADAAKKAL

[2] = biological target: T2, GST-Kap104 (S. cerevisiae) (UniProt P38217); assay: pull-down; GST-importins immobilised on Glutathione Sepharose, incubated with E. coli lysate containing ∼4 µM eS26^FLAG (or its mutants, or GFP-eS26) in PBSKMT with competing E. coli lysates for 1 hr at 4°C; Coomassie Blue staining or Western; only the target purified
T2 sequence: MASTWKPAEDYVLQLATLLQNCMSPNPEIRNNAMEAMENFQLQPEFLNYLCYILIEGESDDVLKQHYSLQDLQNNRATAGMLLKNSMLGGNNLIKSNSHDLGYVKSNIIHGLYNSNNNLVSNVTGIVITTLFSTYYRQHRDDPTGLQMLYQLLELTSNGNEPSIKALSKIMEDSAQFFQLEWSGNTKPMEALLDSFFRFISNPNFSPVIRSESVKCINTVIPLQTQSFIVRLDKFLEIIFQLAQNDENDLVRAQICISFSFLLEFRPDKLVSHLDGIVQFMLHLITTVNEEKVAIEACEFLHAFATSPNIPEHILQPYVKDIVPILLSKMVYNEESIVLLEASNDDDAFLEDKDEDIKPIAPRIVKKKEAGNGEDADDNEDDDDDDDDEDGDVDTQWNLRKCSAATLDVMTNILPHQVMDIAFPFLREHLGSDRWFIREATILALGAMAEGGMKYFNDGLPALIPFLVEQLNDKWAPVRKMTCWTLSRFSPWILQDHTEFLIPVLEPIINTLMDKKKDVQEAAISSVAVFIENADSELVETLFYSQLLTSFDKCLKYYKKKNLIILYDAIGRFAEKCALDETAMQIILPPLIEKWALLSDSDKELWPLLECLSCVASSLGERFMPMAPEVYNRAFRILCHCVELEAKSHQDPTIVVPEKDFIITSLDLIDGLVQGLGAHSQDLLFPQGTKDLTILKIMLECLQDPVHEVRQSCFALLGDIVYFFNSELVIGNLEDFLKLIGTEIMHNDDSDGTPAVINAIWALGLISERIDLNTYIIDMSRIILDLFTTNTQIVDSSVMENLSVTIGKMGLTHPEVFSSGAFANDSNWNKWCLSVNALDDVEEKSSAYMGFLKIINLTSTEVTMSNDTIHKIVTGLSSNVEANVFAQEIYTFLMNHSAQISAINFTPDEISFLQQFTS

[3] = biological target: GST-tagged Kap95 (S. cerevisiae) (UniProt Q06142); assay: as above

binding [1]	binding [2]	binding [3]	Substance
no binding (tested: 4 µM Tsr2:eS26)	–	–	Tsr2:eS26 complex (S. cerevisiae)
–	binds	binds weakly	eS26^FLAG (from UniProt P39938)
